{"source": "PubChem BioAssay AID1508588 (Peter MacCallum Cancer Centre, 2020)", "aim": "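Which gene losses make BRAF-mutant melanoma cells more responsive to vemurafenib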 (primary screen)", "cells": "human WM266.4 melanoma cells (BRAF V600 mutant)", "reagent": "siRNA pool against human genes, 40 nM", "duration": "96 h from transfection to read-out", "treatment": "vemurafenib 300 nM (about IC25), added 48 h after transfection, for 48 h; comparison arm got DMSO vehicle only", "measured": "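Cell gain (DAPI nuclei at end minus before drug, mean of two replicates) and medium lactate by absorbance per cell, both as ratio to non-targeting siRNA, also grouped into fold-change classes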", "scale": "cell gain with vemurafenib: higher = more cell gain than with non-targeting siRNA; lactate per cell with vemurafenib: higher = more lactate made per cell", "active means": "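Enhancement is called by pairing each knock-down's vehicle-arm and drug-arm fold-change classes for viability or glycolysis; which class combinations qualify is not given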", "meaning of the calls": "active = enhances vemurafenib effect; inactive = no enhancement seen", "note": "The deposit covers about 18,000 reagents; shown is a part drawn at random. In the full data, 790 (4.4%) were called active. 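Calls rest on a combination of fold-change classes in drug and vehicle arms, not all shown here.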"}
{"gene symbol": "MYLK4 (myosin light chain kinase family member 4)", "cell gain with vemurafenib": 0.63, "lactate per cell with vemurafenib": 1.25, "call": "inactive"}
{"gene symbol": "MSH3 (mutS homolog 3)", "cell gain with vemurafenib": 0.07, "lactate per cell with vemurafenib": 0.64, "call": "active"}
{"gene symbol": "SPRY2 (sprouty RTK signaling antagonist 2)", "cell gain with vemurafenib": 0.95, "lactate per cell with vemurafenib": 0.54, "call": "inactive"}
{"gene symbol": "PROKR2 (prokineticin receptor 2)", "cell gain with vemurafenib": 0.81, "lactate per cell with vemurafenib": 0.9, "call": "inactive"}
{"gene symbol": "ZBED2 (zinc finger BED-type containing 2)", "cell gain with vemurafenib": 0.4, "lactate per cell with vemurafenib": 0.84, "call": "inactive"}
{"gene symbol": "OOSP2 (oocyte secreted protein 2)", "cell gain with vemurafenib": 0.81, "lactate per cell with vemurafenib": 0.8, "call": "inactive"}
{"gene symbol": "SLAMF8 (SLAM family member 8)", "cell gain with vemurafenib": 0.95, "lactate per cell with vemurafenib": 0.17, "call": "active"}
{"gene symbol": "OVGP1 (oviductal glycoprotein 1)", "cell gain with vemurafenib": 0.63, "lactate per cell with vemurafenib": 0.7, "call": "inactive"}
{"gene symbol": "STARD8 (StAR related lipid transfer domain containing 8)", "cell gain with vemurafenib": 0.84, "lactate per cell with vemurafenib": 1.09, "call": "inactive"}
{"gene symbol": "SESN3 (sestrin 3)", "cell gain with vemurafenib": 0.25, "lactate per cell with vemurafenib": 2.05, "call": "inactive"}
{"gene symbol": "ZNF394 (zinc finger protein 394)", "cell gain with vemurafenib": 0.25, "lactate per cell with vemurafenib": 2.57, "call": "inactive"}
{"gene symbol": "KIAA2013", "cell gain with vemurafenib": 0.35, "lactate per cell with vemurafenib": 1.3, "call": "inactive"}
{"gene symbol": "RPL6 (ribosomal protein L6)", "cell gain with vemurafenib": -0.08, "lactate per cell with vemurafenib": 1.77, "call": "inactive"}
{"gene symbol": "SNTG1 (syntrophin gamma 1)", "cell gain with vemurafenib": 0.15, "lactate per cell with vemurafenib": 0.45, "call": "active"}
{"gene symbol": "IL20RA (interleukin 20 receptor subunit alpha)", "cell gain with vemurafenib": 0.84, "lactate per cell with vemurafenib": 0.92, "call": "inactive"}
{"gene symbol": "CCL8 (C-C motif chemokine ligand 8)", "cell gain with vemurafenib": 0.57, "lactate per cell with vemurafenib": 2, "call": "inactive"}
{"gene symbol": "BRD4 (bromodomain containing 4)", "cell gain with vemurafenib": 0.32, "lactate per cell with vemurafenib": 0.86, "call": "inactive"}
{"gene symbol": "CNTN4 (contactin 4)", "cell gain with vemurafenib": 0.39, "lactate per cell with vemurafenib": 0.8, "call": "inactive"}
{"gene symbol": "HFM1 (helicase for meiosis 1)", "cell gain with vemurafenib": 0.82, "lactate per cell with vemurafenib": 0.79, "call": "inactive"}
{"gene symbol": "TAS2R3 (taste 2 receptor member 3)", "cell gain with vemurafenib": 0.51, "lactate per cell with vemurafenib": 0.68, "call": "inactive"}
{"gene symbol": "OR10J5 (olfactory receptor family 10 subfamily J member 5)", "cell gain with vemurafenib": 0.52, "lactate per cell with vemurafenib": 0.91, "call": "inactive"}
{"gene symbol": "ZSCAN29 (zinc finger and SCAN domain containing 29)", "cell gain with vemurafenib": 0.87, "lactate per cell with vemurafenib": 0.26, "call": "inactive"}
{"gene symbol": "MT1HL1 (metallothionein 1H like 1)", "cell gain with vemurafenib": 0.33, "lactate per cell with vemurafenib": 0.88, "call": "inactive"}
{"gene symbol": "MTARC1 (mitochondrial amidoxime reducing component 1)", "cell gain with vemurafenib": 0.63, "lactate per cell with vemurafenib": 0.95, "call": "inactive"}
{"gene symbol": "RUBCNL (rubicon like autophagy enhancer)", "cell gain with vemurafenib": 0.49, "lactate per cell with vemurafenib": 1.17, "call": "inactive"}
{"gene symbol": "KCNH7 (potassium voltage-gated channel subfamily H member 7)", "cell gain with vemurafenib": 0.67, "lactate per cell with vemurafenib": 0.21, "call": "inactive"}
{"gene symbol": "SPEF2 (sperm flagellar and cilia associated 2)", "cell gain with vemurafenib": 0.85, "lactate per cell with vemurafenib": 1.02, "call": "inactive"}
{"gene symbol": "FURIN (furin, paired basic amino acid cleaving enzyme)", "cell gain with vemurafenib": 0.48, "lactate per cell with vemurafenib": 1.86, "call": "inactive"}
{"gene symbol": "RALGPS2 (Ral GEF with PH domain and SH3 binding motif 2)", "cell gain with vemurafenib": 0.78, "lactate per cell with vemurafenib": 0.62, "call": "inactive"}
{"gene symbol": "CLEC2L (C-type lectin domain family 2 member L)", "cell gain with vemurafenib": 0.62, "lactate per cell with vemurafenib": 1.48, "call": "inactive"}
{"gene symbol": "SESN2 (sestrin 2)", "cell gain with vemurafenib": 0.49, "lactate per cell with vemurafenib": 1.38, "call": "inactive"}
{"gene symbol": "OR51A2 (olfactory receptor family 51 subfamily A member 2)", "cell gain with vemurafenib": 0.73, "lactate per cell with vemurafenib": 1.09, "call": "inactive"}
{"gene symbol": "KLRA1P (killer cell lectin like receptor A1, pseudogene)", "cell gain with vemurafenib": 0.66, "lactate per cell with vemurafenib": 0.45, "call": "inactive"}
{"gene symbol": "ARHGEF1 (Rho guanine nucleotide exchange factor 1)", "cell gain with vemurafenib": 0.76, "lactate per cell with vemurafenib": 1.54, "call": "inactive"}
{"gene symbol": "ZSCAN20 (zinc finger and SCAN domain containing 20)", "cell gain with vemurafenib": 0.56, "lactate per cell with vemurafenib": 1.06, "call": "inactive"}
{"gene symbol": "WDR55 (WD repeat domain 55)", "cell gain with vemurafenib": 0.4, "lactate per cell with vemurafenib": 0.32, "call": "inactive"}
{"gene symbol": "LGALS8 (galectin 8)", "cell gain with vemurafenib": 0.43, "lactate per cell with vemurafenib": 1.27, "call": "inactive"}
{"gene symbol": "CHGB (chromogranin B)", "cell gain with vemurafenib": 0.97, "lactate per cell with vemurafenib": 0.9, "call": "inactive"}
{"gene symbol": "CRP (C-reactive protein)", "cell gain with vemurafenib": 0.75, "lactate per cell with vemurafenib": 0.91, "call": "inactive"}
{"gene symbol": "KMT2B (lysine methyltransferase 2B)", "cell gain with vemurafenib": 0.55, "lactate per cell with vemurafenib": 0.92, "call": "inactive"}

Just “cell gain with vemurafenib” (5 entries from above):
CNTN4 (contactin 4) = 0.39
HFM1 (helicase for meiosis 1) = 0.82
TAS2R3 (taste 2 receptor member 3) = 0.51
OR10J5 (olfactory receptor family 10 subfamily J member 5) = 0.52
ZSCAN29 (zinc finger and SCAN domain containing 29) = 0.87
